This test has as its target Rat TRPV2 full-length (FL), C-terminal GFP and 8xHis tag (rat) (UniProt Q9WUD2). Kind of test: far-Western, overlay or dot blot; slot blot: purified FL rat TRPV2 or ARD placed on nitrocellulose membranes, blocked with 2% BSA in 0.1 M PBS pH 7.4, incubated with rat brain lysate (1 ug/mL in blocking buffer, 1 h, RT; the legend says 0-10 ug of lysate), washed in TBS + 0.1% Tween, immunoblot against Opalin, NTM and PLP1; only the target purified. A general note: In western blotting, separated proteins are transferred to a membrane and probed.

No constants are given. Whether binding was seen depends on the method and setting. Some binding calls cover weakened binding; strength is not graded here.

B1: Proteolipid protein 1 (protein, UniProt P60203 1-277)
chain: MGLLECCARCLVGAPFASLVATGLCFFGVALFCGCGHEALTGTEKLIETYFSKNYQDYEYLINVIHAFQYVIYGTASFFFLYGALLLAEGFYTTGAVRQIFGDYKTTICGKGLSATVTGGQKGRGSRGQHQAHSLERVCHCLGKWLGHPDKFVGITYALTVVWLLVFACSAVPVYIYFNTWTTCQSIAFPSKTSASIGSLCADARMYGVLPWNAFPGKVCGSNLLSICKTAEFQMTFHLFIAAFVGAAATLVSLLTFMIAATYNFAVLKLMGRGTKF
With B1, the binding entry is listed as “binds”.

(Values after PMC8999035.)
